Laboratory results as given in patent US20080038265A1 (published 2008).
These are yes or no findings as the source states them, for the method shown. Some results given as binding are weak or reduced against the parent protein; the word gives no strength.

T1: soluble EpoR (EposR) (human, UniProt P19235 25-250, limits assumed)
T1 construct: Test antigen in BIAcore and in yeast display assays; also called soluble recombinant human EpoR
T1 sequence (looked up): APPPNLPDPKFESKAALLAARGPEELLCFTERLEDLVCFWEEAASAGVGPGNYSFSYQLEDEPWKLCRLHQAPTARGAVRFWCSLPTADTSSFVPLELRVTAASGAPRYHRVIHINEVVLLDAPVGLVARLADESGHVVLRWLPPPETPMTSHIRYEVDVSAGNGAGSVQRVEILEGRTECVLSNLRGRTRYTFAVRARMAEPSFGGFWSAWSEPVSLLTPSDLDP


Experiments:
soluble EpoR (EposR) [1] = target: T1, soluble EpoR (EposR); assay: yeast surface display, flow cytometry: equilibrium titration of scFv-displaying yeast with soluble EpoR at 37 C, bound EposR detected with MAB307 + anti-mouse RPE
soluble EpoR (EposR) [2] = target: T1, soluble EpoR (EposR); assay: yeast surface display off-rate, flow cytometry: yeast loaded with 0.5 uM EposR, then 10,000 fold excess of Ab12 IgG1 at 37 C; remaining EposR detected with MAB307 + anti-mouse PE

| Binder | binding (soluble EpoR (EposR) [1]) | binding (soluble EpoR (EposR) [2]) |
| --- | --- | --- |
| Ab12 41/40 scFv (scFv) scFv: GENKVEYAPALMALSQVQLQESGPGLVKPSETLSLTCTVSGASISSYYWSWIRQPPGKGLEWIGYIYYSGSTNYNPSLKSRVTISVDTSKNQFSLKLRSVTAADTAVYYCARERLGIGDYWGQGTLVTVSSGPAKELTPLKEAKVSDIQLTQSPSSLSASVGDRVTITCRASQGIRNDLGWYQQKPGKAPKRLIYAASSLQSGVPSRFSGSGSGTEFTLTISSLQPEDFATYYCLQHNTYPPTFGQGTKVEIK | binds | binds |
| Ab12 WT/WT (scFv) scFv displayed on yeast: GGGGSGGGGSGGGGSQVQLQESGPGLVKPSETLSLTCTVSGASISSYYWSWIRQPPGKGLEWIGYIYYSGSTNYNPSLKSRVTISVDTSKNQFSLKLRSVTAADTAVYYCARERLGIGDYWGQGTLVTVSSGGGGSGGGGSGGGGSDIQLTQSPSSLSASVGDRVTITCRASQGIRNDLGWYQQKPGKAPKRLIYAASSLQSGVPSRFSGSGSGTEFTLTISSLQPEDFATYYCLQHNTYPPTFGQGTKVEIK | binds |  |
| Ab12 41/WT (scFv, also called Ab12 scFv construct with linker 41 in the tether position and the Gly/Ser linker (WT) in the scFv linker position) scFv displayed on yeast: GENKVEYAPALMALSQVQLQESGPGLVKPSETLSLTCTVSGASISSYYWSWIRQPPGKGLEWIGYIYYSGSTNYNPSLKSRVTISVDTSKNQFSLKLRSVTAADTAVYYCARERLGIGDYWGQGTLVTVSSGGGGSGGGGSGGGGSDIQLTQSPSSLSASVGDRVTITCRASQGIRNDLGWYQQKPGKAPKRLIYAASSLQSGVPSRFSGSGSGTEFTLTISSLQPEDFATYYCLQHNTYPPTFGQGTKVEIK | binds |  |
| Ab12 41/34 (scFv) scFv displayed on yeast: GENKVEYAPALMALSQVQLQESGPGLVKPSETLSLTCTVSGASISSYYWSWIRQPPGKGLEWIGYIYYSGSTNYNPSLKSRVTISVDTSKNQFSLKLRSVTAADTAVYYCARERLGIGDYWGQGTLVTVSSGHEAAAVMQVQYPASDIQLTQSPSSLSASVGDRVTITCRASQGIRNDLGWYQQKPGKAPKRLIYAASSLQSGVPSRFSGSGSGTEFTLTISSLQPEDFATYYCLQHNTYPPTFGQGTKVEIK | binds |  |
